Reference: US20180320217A1, “METHODS FOR SAMPLING AND MEASURING ORAL LAVAGE PROTEINS” (The Procter & Gamble Company, priority 2017, published 2018)

B1: TYPH_HUMAN (protein, UniProt P19971 11-482, looked up)
Thymidine phosphorylase: APPAPGDFSGEGSQGLPDPSPEPKQLPELIRMKRDGGRLSEADIRGFVAAVVNGSAQGAQIGAMLMAIRLRGMDLEETSVLTQALAQSGQQLEWPEAWRQQLVDKHSTGGVGDKVSLVLAPALAACGCKVPMISGRGLGHTGGTLDKLESIPGFNVIQSPEQMQVLLDQAGCCIVGQSEQLVPADGILYAARDVTATVDSLPLITASILSKKLVEGLSALVVDVKFGGAAVFPNQEQARELAKTLVGVGASLGLRVAAALTAMDKPLGRCVGHALEVEEALLCMDGAGPPDLRDLVTTLGGALLWLSGHAGTQAQGAARVAAALDDGSALGRFERMLAAQGVDPGLARALCSGSPAERRQLLPRAREQEELLAPADGTVELVRALPLALVLHELGAGRSRAGEPLRLGVGAELLVDVGQRLRRGTPWLRVHRDGPALSGPQSRALQEALVLSDRAPFAAPSPFAELVLPPQQ
B2: SPB5_HUMAN (protein, UniProt P36952 1-375, looked up)
Serpin B5: MDALQLANSAFAVDLFKQLCEKEPLGNVLFSPICLSTSLSLAQVGAKGDTANEIGQVLHFENVKDVPFGFQTVTSDVNKLSSFYSLKLIKRLYVDKSLNLSTEFISSTKRPYAKELETVDFKDKLEETKGQINNSIKDLTDGHFENILADNSVNDQTKILVVNAAYFVGKWMKKFSESETKECPFRVNKTDTKPVQMMNMEATFCMGNIDSINCKIIELPFQNKHLSMFILLPKDVEDESTGLEKIEKQLNSESLSQWTNPSTMANAKVKLSIPKFKVEKMIDPKACLENLGLKHIFSEDTSDFSGMSETKGVALSNVIHKVCLEITEDGGDSIEVPGARILQHKDELNADHPFIYIIRHNKTRNIIFFGKFCSP
B3: SPB3_HUMAN (protein, UniProt P29508 1-390, looked up)
Serpin B3: MNSLSEANTKFMFDLFQQFRKSKENNIFYSPISITSALGMVLLGAKDNTAQQIKKVLHFDQVTENTTGKAATYHVDRSGNVHHQFQKLLTEFNKSTDAYELKIANKLFGEKTYLFLQEYLDAIKKFYQTSVESVDFANAPEESRKKINSWVESQTNEKIKNLIPEGNIGSNTTLVLVNAIYFKGQWEKKFNKEDTKEEKFWPNKNTYKSIQMMRQYTSFHFASLEDVQAKVLEIPYKGKDLSMIVLLPNEIDGLQKLEEKLTAEKLMEWTSLQNMRETRVDLHLPRFKVEESYDLKDTLRTMGMVDIFNGDADLSGMTGSRGLVLSGVLHKAFVEVTEEGAEAAAATAVVGFGSSPTSTNEEFHCNHPFLFFIRQNKTNSILFYGRFSSP
B4: TALDO_HUMAN (protein, UniProt P37837 1-337, looked up)
Transaldolase: MSSSPVKRQRMESALDQLKQFTTVVADTGDFHAIDEYKPQDATTNPSLILAAAQMPAYQELVEEAIAYGRKLGGSQEDQIKNAIDKLFVLFGAEILKKIPGRVSTEVDARLSFDKDAMVARARRLIELYKEAGISKDRILIKLSSTWEGIQAGKELEEQHGIHCNMTLLFSFAQAVACAEAGVTLISPFVGRILDWHVANTDKKSYEPLEDPGVKSVTKIYNYYKKFSYKTIVMGASFRNTGEIKALAGCDFLTISPKLLGELLQDNAKLVPVLSAKAAQASDLEKIHLDEKSFRWLHNEDQMAVEKLSDGIRKFAADAVKLERMLTERMFNAENGK
B5: SPRR3_HUMAN (protein, UniProt Q9UBC9 2-169, looked up)
Small proline-rich protein 3: SSYQQKQTFTPPPQLQQQQVKQPSQPPPQEIFVPTTKEPCHSKVPQPGNTKIPEPGCTKVPEPGCTKVPEPGCTKVPEPGCTKVPEPGCTKVPEPGCTKVPEPGYTKVPEPGSIKVPDQGFIKFPEPGAIKVPEQGYTKVPVPGYTKLPEPCPSTVTPGPAQQKTKQK
B6: SBSN_HUMAN (protein, UniProt Q6UWP8 26-590, looked up)
Suprabasin: DDPIEKVIEGINRGLSNAEREVGKALDGINSGITHAGREVEKVFNGLSNMGSHTGKELDKGVQGLNHGMDKVAHEINHGIGQAGKEAEKLGHGVNNAAGQVGKEADKLIHHGVHHGANQAGSEAGKFGQGVDNAAGQAGNEAGRFGQGVHHAAGQAGNEAGRFGQGVHHAAGQAGNEAGRFGQGAHHGLSEGWKETEKFGQGIHHAAGQVGKEAEKFGQGAHHAAGQAGNEAGRFGQGVHHGLSEGWKETEKFGQGVHHTAGQVGKEAEKFGQGAHHAAGQAGNEAGRFGQGAHHAAGQAGNEAGRFGQGVHHGLSEGWKETEKFGQGVHHAASQFGKETEKLGHGVHHGVNEAWKEAEKFGQGVHHAASQVGKEEDRVVQGLHHGVSQAGREAGQFGHDIHHTAGQAGKEGDIAVHGVQPGVHEAGKEAGQFGQGVHHTLEQAGKEADKAVQGFHTGVHQAGKEAEKLGQGVNHAADQAGKEVEKLGQGAHHAAGQAGKELQNAHNGVNQASKEANQLLNGNHQSGSSSHQGGATTTPLASGASVNTPFINLPALWRSVANIMP
B7: SSBP_HUMAN (protein, UniProt Q04837 17-148, looked up)
Single-stranded DNA-binding …: ESETTTSLVLERSLNRVHLLGRVGQDPVLRQVEGKNPVTIFSLATNEMWRSGDSEVYQLGDVSQKTTWHRISVFRPGLRDVAYQYVKKGSRIYLEGKIDYGEYMDKNNVRRQATTIIADNIIFLSDQTKEKE
B8: THIO_HUMAN (protein, UniProt P10599 2-105, looked up)
Thioredoxin: VKQIESKTAFQEALDAAGDKLVVVDFSATWCGPCKMIKPFFHSLSEKYSNVIFLEVDVDDCQDVASECEVKCMPTFQFFKKGQKVGEFSGANKEKLEATINELV
B9: ZN185_HUMAN (protein, UniProt O15231 1-689, looked up)
Zinc finger protein 185: MSISALGGRTKGKPLPPGEEERNNVLKQMKVRTTLKGDKSWITKQDESEGRTIELPSGRSRATSFSSAGEVPKPRPPSTRAPTGYIIRGVFTKPIDSSSQPQQQFPKANGTPKSAASLVRTANAGPPRPSSSGYKMTTEDYKKLAPYNIRRSSTSGDTEEEEEEEVVPFSSDEQKRRSEAASGVLRRTAPREHSYVLSAAKKSTGPTQETQAPFIAKRVEVVEEDGPSEKSQDPPALARSTPGSNSADGGRTKASRAIWIECLPSMPSPAGSQELSSRGEEIVRLQILTPRAGLRLVAPDVEGMRSSPGNKDKEAPCSRELQRDLAGEEAFRAPNTDAARSSAQLSDGNVGSGATGSRPEGLAAVDIGSERGSSSATSVSAVPADRKSNSTAAQEDAKADPKGALADYEGKDVATRVGEAWQERPGAPRGGQGDPAVPAQQPADPSTPERQSSPSGSEQLVRRESCGSSVLTDFEGKDVATKVGEAWQDRPGAPRGGQGDPAVPTQQPADPSTPEQQNSPSGSEQFVRRESCTSRVRSPSSCMVTVTVTATSEQPHIYIPAPASELDSSSTTKGILFVKEYVNASEVSSGKPVSARYSNVSSIEDSFAMEKKPPCGSTPYSERTTGGICTYCNREIRDCPKITLEHLGICCHEYCFKCGICSKPMGDLLDQIFIHRDTIHCGKCYEKLF

Tested on: peptides in gingival brush samples
Test: Protein and peptide profiling of gingival brush samples (LC-MS/MS), TABLE 23
Type: in vivo, human
Conditions: pooled gingival brush samples, LC-MS/MS; for Mean CntlBsl (peptide abundance) / Mean CntlWk3 (peptide abundance): control regimen; for Mean CntlBsl (peptide abundance) / Mean TrtBsl (peptide abundance): baseline; for Mean CntlWk3 (peptide abundance) / Mean TrtWk3 (peptide abundance): week 3; for Mean TrtBsl (peptide abundance) / Mean TrtWk3 (peptide abundance): treatment regimen

| Molecule | Mean CntlBsl (peptide abundance) | Mean CntlWk3 (peptide abundance) | Mean TrtBsl (peptide abundance) | Mean TrtWk3 (peptide abundance) |
| --- | --- | --- | --- | --- |
| B1 | 1774.9 | 3512.2 | 1282.9 | 3282.4 |
| B2 | 14492.1 | 21720.3 | 18881.3 | 33124.8 |
| B3 | 16544.0 | 25073.8 | 12335.0 | 31865.2 |
| B4 | 18752.3 | 25742.5 | 19378.8 | 28463.8 |
| B5 | 167604.6 | 348856.5 | 212243.1 | 394037.6 |
| B6 | 57228.2 | 65066.6 | 62030.8 | 82870.1 |
| B7 | 7882.5 | 10686.9 | 5558.2 | 10917.0 |
| B8 | 221041.9 | 341085.6 | 257150.7 | 394704.2 |
| B9 | 4594.2 | 6167.6 | 1304.0 | 2653.4 |
